{"source": "PubChem BioAssay AID1259254 (NCATS, 2017)", "screen": "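Gene knock-downs that lead to re-replication, shown by excess G2 DNA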 (primary screen)", "cell system": "human HCT116 colorectal cancer cells", "reagent": "single siRNA against human genes", "time to read-out": "3 days", "read-out": "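Nuclei stained with Hoechst and imaged; cell-cycle phase assigned by DNA content; G2 share scaled per plate, non-targeting siRNA 0%, GMNN siRNA 100%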", "reading the numbers": "G2 robust z-score and G2 cells, % of GMNN control: higher = more G2 cells, more excess DNA replication", "rule for the call": "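Active siRNAs have a G2 robust z of 5 or more median absolute deviations over the median, which in these data means about 38% or higher of GMNN control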", "note": "Shown is a random part of about 59,000 deposited reagents. In the full data, about 1,550 (2.6%) were called active. 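G2 share is only a proxy for re-replication; each gene was hit by three separate siRNAs, and active genes were retested.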 Reagents against one gene are numbered here. Not all columns of the deposit are shown. Reagent sequences are not shown. Not stated in the record: the amount of reagent."}
The opening 3 entries as a preview:
{"target gene":"HGSNAT","reagent no.":1,"G2 robust z-score":-1.06,"G2 cells, % of GMNN control":-4.52,"Call":"inactive"}
{"target gene":"HGSNAT","reagent no.":2,"G2 robust z-score":0.159,"G2 cells, % of GMNN control":4.09,"Call":"inactive"}
{"target gene":"HGSNAT","reagent no.":3,"G2 robust z-score":0.135,"G2 cells, % of GMNN control":3.92,"Call":"inactive"}

Main list, repeating the preview:
{"target gene":"HGSNAT","reagent no.":1,"G2 robust z-score":-1.06,"G2 cells, % of GMNN control":-4.52,"Call":"inactive"}
{"target gene":"HGSNAT","reagent no.":2,"G2 robust z-score":0.159,"G2 cells, % of GMNN control":4.09,"Call":"inactive"}
{"target gene":"HGSNAT","reagent no.":3,"G2 robust z-score":0.135,"G2 cells, % of GMNN control":3.92,"Call":"inactive"}
{"target gene":"EOLA1","reagent no.":1,"G2 robust z-score":-0.427,"G2 cells, % of GMNN control":-0.0395,"Call":"inactive"}
{"target gene":"EOLA1","reagent no.":2,"G2 robust z-score":-0.0744,"G2 cells, % of GMNN control":2.44,"Call":"inactive"}
{"target gene":"EOLA1","reagent no.":3,"G2 robust z-score":0.0579,"G2 cells, % of GMNN control":3.37,"Call":"inactive"}
{"target gene":"EOLA1","reagent no.":4,"G2 robust z-score":-0.479,"G2 cells, % of GMNN control":-0.4,"Call":"inactive"}
{"target gene":"EOLA1","reagent no.":5,"G2 robust z-score":4.03,"G2 cells, % of GMNN control":31.3,"Call":"inactive"}
{"target gene":"EOLA1","reagent no.":6,"G2 robust z-score":1.98,"G2 cells, % of GMNN control":16.9,"Call":"inactive"}
{"target gene":"LDB2","reagent no.":1,"G2 robust z-score":-0.617,"G2 cells, % of GMNN control":-1.37,"Call":"inactive"}
{"target gene":"LDB2","reagent no.":2,"G2 robust z-score":-1.6,"G2 cells, % of GMNN control":-8.3,"Call":"inactive"}
{"target gene":"LDB2","reagent no.":3,"G2 robust z-score":-0.341,"G2 cells, % of GMNN control":0.569,"Call":"inactive"}
{"target gene":"CYP4V2","reagent no.":1,"G2 robust z-score":0.726,"G2 cells, % of GMNN control":8.07,"Call":"inactive"}
{"target gene":"CYP4V2","reagent no.":2,"G2 robust z-score":3.6,"G2 cells, % of GMNN control":28.3,"Call":"inactive"}
{"target gene":"CYP4V2","reagent no.":3,"G2 robust z-score":4.01,"G2 cells, % of GMNN control":31.2,"Call":"inactive"}
{"target gene":"ALK","reagent no.":1,"G2 robust z-score":0.614,"G2 cells, % of GMNN control":7.29,"Call":"inactive"}
{"target gene":"ALK","reagent no.":2,"G2 robust z-score":2.93,"G2 cells, % of GMNN control":23.6,"Call":"inactive"}
{"target gene":"ALK","reagent no.":3,"G2 robust z-score":-1.2,"G2 cells, % of GMNN control":-5.51,"Call":"inactive"}
{"target gene":"DISP1","reagent no.":1,"G2 robust z-score":-0.473,"G2 cells, % of GMNN control":-0.363,"Call":"inactive"}
{"target gene":"DISP1","reagent no.":2,"G2 robust z-score":-0.0487,"G2 cells, % of GMNN control":2.62,"Call":"inactive"}
{"target gene":"DISP1","reagent no.":3,"G2 robust z-score":-0.257,"G2 cells, % of GMNN control":1.16,"Call":"inactive"}
{"target gene":"MED6","reagent no.":1,"G2 robust z-score":-0.917,"G2 cells, % of GMNN control":-3.48,"Call":"inactive"}
{"target gene":"MED6","reagent no.":2,"G2 robust z-score":6.72,"G2 cells, % of GMNN control":50.3,"Call":"active"}
{"target gene":"MED6","reagent no.":3,"G2 robust z-score":0.519,"G2 cells, % of GMNN control":6.62,"Call":"inactive"}
{"target gene":"C1QBP","reagent no.":1,"G2 robust z-score":-0.469,"G2 cells, % of GMNN control":-0.33,"Call":"inactive"}
{"target gene":"C1QBP","reagent no.":2,"G2 robust z-score":-0.0301,"G2 cells, % of GMNN control":2.76,"Call":"inactive"}
{"target gene":"C1QBP","reagent no.":3,"G2 robust z-score":-1,"G2 cells, % of GMNN control":-4.09,"Call":"inactive"}
{"target gene":"DEFB130A","reagent no.":1,"G2 robust z-score":1.88,"G2 cells, % of GMNN control":16.2,"Call":"inactive"}
{"target gene":"DEFB130A","reagent no.":2,"G2 robust z-score":0.0987,"G2 cells, % of GMNN control":3.66,"Call":"inactive"}
{"target gene":"DEFB130A","reagent no.":3,"G2 robust z-score":0.389,"G2 cells, % of GMNN control":5.71,"Call":"inactive"}
